The text below walks through data of US20040038338A1, “Influence of LRP cytoplasmic domain on Abeta production” (priority 2001, published 2004).

The series deals with LRP−/− fibroblasts. Briefly: Cell surface biotinylation, blot for LRP. In kind it is cell-based, mouse. The conditions noted are these: streptavidin precipitation, LRP antibody 1704.

Entries after “also recorded” stand apart in the source; their conditions may differ.

B1: LRP-CT: last 370 amino acids of the LRP β-subunit, transmembrane domain and entire cytoplasmic region, with signal peptide (protein)
chain: KRLDNGTCVPVPSPTPPPDAPRPGTCNLQCFNGGSCFLNARRQPKCRCQPRYTGDKCELDQCWEHCRNGGTCAASPSGMPTCRCPTGFTGPKCTQQVCAGYCANNSTCTVNQGNQPQCRCLPGFLGDRCQYRQCSGYCENFGTCQMAADGSRQCRCTAYFEGSRCEVNKCSRCLEGACVVNKQSGDVTCNCTDGRVAPSCLTCVGHCSNGGSCTMNSKMMPECQCPPHMTGPRCEEHVFSQQQPGHIASILIPLLLLLLLVLVAGVVFWYKRRVQGAKGFQHQRMTNGAMNVEIGNPTYKMYEGGEPDDVGGLLDADFALDPDKPTNFTNPVYATLYMGGHGSRHSLASTDEKRELLGRGPEDEIGDPLA
As to B1, the “transport of the construct to the cell surface” value is “reaches the cell surface similarly to full length LRP; also recorded: transported to the cell surface”.
